Measured values taken from patent publication US4283328A (Research Corporation, priority 1979, dated 1981).

Assay: general procedure: solution-phase peptide synthesis; dehydro azlactone ring opening; isobutyl chloroformate/N-methylmorpholine; DCC/H

| Substance | step yield (coupling step) [%] | step yield (late stage modification step) [%] | other results |
| --- | --- | --- | --- |
| BOC-DAla-Gly-ΔPhe-Met NH2 | 54 | – | – |
| H.Pro-ΔPhe-His-Leu.OH.2HBr | – | 69 | – |
| N-carbobenzoxy-Gly-Gly-Phe-MetNH2 | 60 | – | – |
| S-trityl-3-Mercaptopropanoyl-Prolyl-Δ-Phenylalanyl-Histidyl-Leucine.OH | 68 | – | – |
| Z-Pro-ΔPhe-His-Leu.OCH3 | – | – | step yield (coupling step, run 1): 84%; step yield (coupling step, run 2): 76% |
| Z-Pro-ΔPhe-His-Leu.OH | 81 | 64 | – |
